Laboratory results from PubChem BioAssay AID330 (DTP/NCI, 2004).
The list shows only some results of the screen, not a fair sample: it gathers tests that were run many times, whatever their T/C, doses with no T/C, and many T/C values between a quarter and a half above the control. Other doses and runs of a compound stand elsewhere. T/C gives the treated animals as a percentage of the vehicle group. Some entries give survivors of the animals treated and no T/C: the source holds a T/C of zero for them, seemingly a mark for toxic or unscored doses. Some doses without a T/C left all or most animals alive at the check, yet need not have been tolerated: the source hardly ever lists a survival T/C far under the control, and the zero likely stands for such cases as well. Counts of survivors are from the toxicity check (mostly the fifth day) where no day follows; animals may have died later. Schedule codes are those of the source, taken here to give the interval after Q, in days (D) or hours (H), and the number of doses after X. Some entries were tested several times; the values are given in rising order. Where survival is the endpoint, this PubChem deposit counts one and a half times the control or more as active, and values a quarter to a half above the control carry no call in these data; other NCI protocols may use other cut-offs. Some T/C values carry the count of animals alive at the toxicity check (mostly the fifth day); without a count, all were alive then.

Test system: P388 leukemia ip, CD2F1 mice, survival T/C
Assay: NCI In Vivo Anticancer Drug Screen. Data for tumor model P388 Leukemia (intraperitoneal) in CD2F1 (CDF1) mice
Conditions: T/C endpoint: median survival time, higher T/C = longer survival
[1] = dose: 200.0 mg/kg/injection, schedule: Q01DX001 (ip), vehicle: Klucel (hydroxypropylcellulose) (HPC)
[2] = dose: 12.5 mg/kg/injection, schedule: Q01DX009 (ip), vehicle: saline with Tween-80
[3] = dose: 25.0 mg/kg/injection, schedule: Q01DX009 (ip), vehicle: saline with Tween-80
[4] = dose: 400.0 mg/kg/injection, schedule: Q01DX005 (ip), vehicle: Klucel (hydroxypropylcellulose) (HPC)
[5] = dose: 100.0 mg/kg/injection, schedule: Q01DX009 (ip), vehicle: saline
[6] = dose: 200.0 mg/kg/injection, schedule: Q01DX009 (ip), vehicle: saline
[7] = dose: 10.0 mg/kg/injection, schedule: Q01DX009 (ip), vehicle: Klucel (hydroxypropylcellulose) (HPC)
[8] = dose: 100.0 mg/kg/injection, schedule: Q01DX005 (ip), vehicle: saline with Tween-80
[9] = dose: 200.0 mg/kg/injection, schedule: Q01DX005 (ip), vehicle: saline with Tween-80
[10] = dose: 50.0 mg/kg/injection, schedule: Q01DX009 (ip), vehicle: saline
[11] = dose: 200.0 mg/kg/injection, schedule: Q01DX009 (ip), vehicle: Klucel (hydroxypropylcellulose) (HPC)
[12] = dose: 100.0 mg/kg/injection, schedule: Q01DX005 (ip), vehicle: saline
[13] = dose: 200.0 mg/kg/injection, schedule: Q01DX005 (ip), vehicle: saline
[14] = dose: 100.0 mg/kg/injection, schedule: Q01DX009 (ip), vehicle: saline with Tween-80
[15] = dose: 200.0 mg/kg/injection, schedule: Q01DX009 (ip), vehicle: saline with Tween-80

SMILES: CC#CS(=O)C#CC
- survivor count (dose: 12.5 mg/kg/injection, schedule: Q01DX009 (ip), vehicle: distilled water + alcohol): 1 of 6
- survivor count (dose: 25.0 mg/kg/injection, schedule: Q01DX009 (ip), vehicle: distilled water + alcohol): 0 of 6

SMILES: O=[N+]([O-])c1cccc(N/N=C\c2cccc3c(/C=N/Nc4cccc([N+](=O)[O-])c4)c(Cl)n(-c4ccccc4)c23)c1
- survivor count [1]: 6 of 6
- survivor count (dose: 400.0 mg/kg/injection, schedule: Q01DX001 (ip), vehicle: Klucel (hydroxypropylcellulose) (HPC)): 6 of 6

SMILES: S=C=NCCCCCCCCCCCCN=C=S
- T/C [2]: 138 % of control
- survivor count [2]: 2 of 6
- survivor count [3]: 2 of 6

SMILES: COc1cc(C2c3cc4c(cc3C(OC(=O)CCC(=O)O)C3COC(=O)C23)OCO4)cc(OC)c1OC (configuration not stated)
- T/C (dose: 100.0 mg/kg/injection, schedule: Q04DX002 (ip), vehicle: Klucel (hydroxypropylcellulose) (HPC)): 132 % of control [5 of 6 alive]
- survivor count (dose: 200.0 mg/kg/injection, schedule: Q04DX002 (ip), vehicle: Klucel (hydroxypropylcellulose) (HPC)): 2 of 6
- survivor count (dose: 400.0 mg/kg/injection, schedule: Q04DX002 (ip), vehicle: Klucel (hydroxypropylcellulose) (HPC)): 0 of 6

SMILES: CCOc1ccc(C(C)c2cc3c(cc2OCC)OCO3)cc1C (configuration not stated)
- T/C (dose: 100.0 mg/kg/injection, schedule: Q01DX005 (ip), vehicle: Klucel (hydroxypropylcellulose) (HPC)): 129 % of control
- T/C (dose: 200.0 mg/kg/injection, schedule: Q01DX005 (ip), vehicle: Klucel (hydroxypropylcellulose) (HPC), evaluated on day 20): 136 % of control
- T/C (dose: 200.0 mg/kg/injection, schedule: Q01DX005 (ip), vehicle: Klucel (hydroxypropylcellulose) (HPC), evaluated on day 30): 146 % of control
- T/C [4]: 131 % of control
- survivor count [4]: 6 of 6

SMILES: CN1CCN2c3ccccc3Cc3ccccc3C2C1 (configuration not stated)
- survivor count [5]: 2 of 6 and 3 of 6
- survivor count [6]: 0 of 6

SMILES: c1cc2c3c(c1)c1cc4c(cc1c[n+]3CC2)OCO4
- T/C (dose: 6.25 mg/kg/injection, schedule: Q01DX009 (ip), vehicle: water): 127 % of control
- T/C (dose: 12.5 mg/kg/injection, schedule: Q01DX009 (ip), vehicle: water): 142 % of control
- survivor count (dose: 50.0 mg/kg/injection, schedule: Q01DX009 (ip), vehicle: other): 0 of 6
- survivor count (dose: 50.0 mg/kg/injection, schedule: Q01DX009 (ip), vehicle: water): 2 of 6
- survivor count (dose: 100.0 mg/kg/injection, schedule: Q01DX009 (ip), vehicle: other): 0 of 6
- survivor count (dose: 100.0 mg/kg/injection, schedule: Q01DX009 (ip), vehicle: water): 0 of 6
- survivor count (dose: 200.0 mg/kg/injection, schedule: Q01DX009 (ip), vehicle: other): 0 of 6
- survivor count (dose: 400.0 mg/kg/injection, schedule: Q01DX009 (ip), vehicle: other): 0 of 6

SMILES: CC[PH+](CC)CC[S-].CC[PH+](CC)CC[S-].[Au+].[Au+]
- T/C [7]: 130 and 134 % of control
- T/C (dose: 20.0 mg/kg/injection, schedule: Q01DX009 (ip), vehicle: Klucel (hydroxypropylcellulose) (HPC)): 135 % of control

SMILES: CCc1c(O)c2c(n(C)c1=O)CC(C)(C)NC2=S
- survivor count (dose: 240.0 mg/kg/injection, schedule: Q01DX005 (ip), vehicle: Klucel (hydroxypropylcellulose) (HPC)): 5 of 6

SMILES: CCN(CC)Cc1cc(Nc2cc(Cl)c3ccc(N(C)C)cc3n2)ccc1O
- survivor count [5]: 5 of 6
- survivor count [6]: 1 of 6

SMILES: COc1ccc(-c2coc3c4c(c(CC=C(C)C)c(OC)c3c2=O)OC(C)(C)C=C4)cc1OC
- survivor count [8]: 5 of 5
- survivor count [9]: 5 of 5

SMILES: CNC1=C(C(=O)c2ccccc2)CCC1
- T/C [10]: 129 % of control
- survivor count [10]: 5 of 6

SMILES: Cc1c(O)ccc(N=O)c1O
- survivor count [8]: 0 of 6
- survivor count [9]: 0 of 6

SMILES: CC(C)N1CCC(Oc2ccc3ccccc3n2)C1 (configuration not stated)
- survivor count [11]: 0 of 6

SMILES: CN1[C@@H]2CC[C@H]1CC(O)(c1ccccc1)C2 (some centres not stated)
- survivor count [8]: 5 of 6
- survivor count [9]: 0 of 6

SMILES: N=C(N)Sc1cc(O)ccc1O
- survivor count (dose: 300.0 mg/kg/injection, schedule: Q01DX009 (ip), vehicle: saline with Tween-80): 6 of 6

SMILES: N#Cc1ccc(NN=NCCO)cc1
- T/C (dose: 200.0 mg/kg/injection, schedule: Q01DX009 (ip), vehicle: distilled water + Tween-80): 128 % of control

SMILES: COCN1C(=O)CN=C(c2ccccc2)c2cc(NO)ccc21
- survivor count (dose: 100.0 mg/kg/injection, schedule: Q01DX009 (ip), vehicle: Klucel (hydroxypropylcellulose) (HPC)): 1 of 6
- survivor count [11]: 0 of 6

SMILES: Cc1cc2c(=O)cc(-c3ccccc3)oc2c(C(=O)O)c1C
- T/C (dose: 120.0 mg/kg/injection, schedule: Q01DX005 (ip), vehicle: saline with Tween-80): 128 and 148 % of control
- T/C (dose: 240.0 mg/kg/injection, schedule: Q01DX005 (ip), vehicle: saline with Tween-80): 138 % of control [5 of 6 alive]

SMILES: COc1ccccc1N=NC1=C2Nc3ccccc3N=C1N(c1ccccc1OC)C(=S)N2c1ccccc1C
- survivor count [9]: 0 of 6

SMILES: O=C1NNC(c2ccccc2)C1(Cl)Cl (configuration not stated)
- survivor count [3]: 2 of 6
- survivor count [10]: 5 of 6
- survivor count [5]: 2 of 6
- survivor count [6]: 0 of 6

SMILES: Cc1ccc(C(=O)C(CN(C)C)CN(C)C)cc1C
- T/C (dose: 12.5 mg/kg/injection, schedule: Q01DX005 (ip), vehicle: saline): 128 and 132 % of control
- T/C (dose: 25.0 mg/kg/injection, schedule: Q01DX005 (ip), vehicle: saline): 125 % of control [5 of 6 alive]
- survivor count (dose: 50.0 mg/kg/injection, schedule: Q01DX005 (ip), vehicle: saline): 0 of 5
- survivor count [12]: 0 of 5
- survivor count [13]: 0 of 5

SMILES: CCCCCCCCCCCCC[N+]1([O-])CCOCC1
- survivor count [5]: 2 of 6
- survivor count [6]: 0 of 6

SMILES: CCn1c(Cl)c(/C=N/NS(=O)(=O)c2ccc(C)cc2)c2cccc(/C=N\NS(=O)(=O)c3ccc(C)cc3)c21
- survivor count [1]: 6 of 6

SMILES: CCCCC[N+]1(CC)CCCCC1
- survivor count [10]: 0 of 6
- survivor count [5]: 0 of 6
- survivor count [6]: 0 of 6

SMILES: Nc1nc2ncc(CNc3ccc(C(=O)NC(CCC(=O)O)C(=O)O)cc3)nc2c(=O)[nH]1 (configuration not stated)
- survivor count [14]: 0 of 6
- survivor count [15]: 0 of 6
- survivor count [6]: 1 of 5
- survivor count (dose: 400.0 mg/kg/injection, schedule: Q01DX009 (ip), vehicle: saline): 0 of 5

SMILES: O=C(CCl)SCc1ccccc1
- survivor count (dose: 400.0 mg/kg/injection, schedule: Q04DX003 (ip), vehicle: saline with Tween-80): 0 of 6

SMILES: COc1cccc2c1C(=O)c1c(O)c3c(c(O)c1C2=O)C[C@@](O)(C(C)=O)C[C@@H]3OC1CC(NC(C)=O)C(O)C(C)O1 (some centres not stated)
- T/C (dose: 1.32 mg/kg/injection, schedule: Q01DX009 (ip), vehicle: saline): 131 % of control
- T/C (dose: 3.0 mg/kg/injection, schedule: Q01DX009 (ip), vehicle: saline): 136 % of control
- T/C (dose: 4.5 mg/kg/injection, schedule: Q01DX009 (ip), vehicle: saline): 136 % of control

SMILES: CC1=CC(Cc2ccccc2)N(C)C(C(N)=O)C1 (configuration not stated)
- survivor count (dose: 200.0 mg/kg/injection, schedule: Q01DX005 (ip), vehicle: Klucel (hydroxypropylcellulose) (HPC)): 0 of 6

SMILES: COC(=O)C(=C(C)C)S(=O)c1ccccc1 (configuration not stated)
- survivor count [12]: 1 of 6
- survivor count [13]: 0 of 6

SMILES: O=C1c2c(O)ccc(O)c2C(=O)c2c(NCCCCCO)ccc(NCCCCCO)c21
- survivor count [7]: 6 of 6

SMILES: O=c1[nH]cnc2[nH]ccc12
- survivor count [14]: 6 of 6
- survivor count [15]: 1 of 6
- survivor count (dose: 400.0 mg/kg/injection, schedule: Q01DX009 (ip), vehicle: saline with Tween-80): 0 of 6

SMILES: COc1cccc2c1C(=O)c1c(O)c3c(c(O)c1C2=O)CC(NO)CC3OC1CC(NC(=O)C(F)(F)F)C(O)C(C)O1 (configuration not stated)
- T/C (dose: 12.5 mg/kg/injection, schedule: Q01DX009 (ip), vehicle: other): 128 % of control
